Measured values from PubChem BioAssay (EPA / NIEHS).
The shares of active, inactive and inconclusive entries below differ from those in the screen. Potencies of inconclusive entries are doubtful fits and often do not repeat. Active and inactive are the calls of the source. How the source made its calls: active means hit-call score of the fitted dose curve at least 0.9, where 1 is the maximum; inconclusive means response in the unintended direction; inactive means score below 0.9.

Experiment: ACEA_ER_AUC_viability: ACEA Biosciences xCELLigence Real-Time Cell Analysis on Estrogen Receptor Agonism for Viability (AID 2283782);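 further: hit means loss of impedance signal meaning reduced cell growth or viability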
In short: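 Continuous-exposure impedance cell analysis uses T-47D cells in charcoal-stripped serum, eight 1:4 dilutions topping at 100 uM final, biological duplicate. Area under the growth curve at 80 h is fitted against DMSO baseline.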

SMILES	outcome	AC50
CCCCCCCC(=O)OCC	inactive	–
Nc1cc(Cl)c(N)c(Cl)c1	–	inconclusive: 10.7 µM
O=C(Cl)c1ccc(C(=O)Cl)cc1	–	inconclusive: 13.8 µM
CCCCCCCCCCCCCOP(=O)(O)O	–	active: 48.7 µM
CC(C)C(=O)OCCc1ccccc1	inactive	–
C=CC/C=C/C/C=C/C/C=C/C	–	inconclusive: 0.694 µM
C/C=C\C/C=C/CCCCCCCCOC(C)=O	–	active: 82.3 µM
CCCOC(=O)CCCCC(=O)OCCC	–	active: 50 µM
CCCCCCCCCCCCS	–	inconclusive: 50 µM
NCCN	inactive	–
O=C1OC(=O)c2ccc3c4c(ccc1c24)C(=O)OC3=O	inactive	–
O=C(OCCc1ccccc1)c1ccccc1	–	active: 85.9 µM
O=C1CN(N=Cc2ccc([N+](=O)[O-])o2)C(=O)N1	–	inconclusive: 50 µM
NC(=O)NNC(N)=O	inactive	–
CCCCOC(=O)CCCCCCCCC(=O)OCCCC	–	inconclusive: 50 µM
CCCOC(=O)c1ccc(O)cc1	–	inconclusive: 2.44 µM
CCCCN(CCCC)C(=S)S	–	inconclusive: 50 µM
OCCCC(F)(F)C(F)(F)C(F)(F)F	–	inconclusive: 0.0541 µM
CCn1nc(Cc2ccccc2)cc1C1CCN(C[C@H]2C[C@H](N(C)[C@@H](C(=O)O)C(C)C)C[C@@H]2c2cccc(F)c2)CC1	–	active: 7.91 µM

Shown comma-delimited: part of the list above
SMILES,outcome,AC50
Nc1cc(Cl)c(N)c(Cl)c1,–,inconclusive: 10.7 µM
O=C(Cl)c1ccc(C(=O)Cl)cc1,–,inconclusive: 13.8 µM

Going on with the list:

SMILES	outcome	AC50
OCCCCl	inactive	–
CC(C)CCOCc1ccccc1	inactive	–
CCCCCCOC(=O)C(C)CC (stereo not drawn)	–	active: 66.7 µM
c1ccc2occc2c1	–	inconclusive: 50 µM
CC/C=C\CCOC(=O)CCCCC	inactive	–
O=S1(=O)OC(c2ccc(O)cc2)(c2ccc(O)cc2)c2ccccc21	inactive	–
c1ccc(C(O[C@@H]2CCCN(CCc3ccc4c(c3)OCO4)C2)c2ccccc2)cc1	–	inconclusive: 50 µM
O=C(O)C1=NN(c2ccc(S(=O)(=O)O)cc2)C(=O)C1	–	inconclusive: 50 µM
C=CCCCCCCCCC(=O)OCCCC	–	active: 50 µM
Nc1ccc(Cl)c(N)c1	–	active: 73 µM
CC1=CCC(=C(C)C)CC1	–	inconclusive: 50 µM
N#CCCNCCC#N	inactive	–
NCC1(Cc2noc(=O)[nH]2)CCCCC1	–	inconclusive: 6.84 µM
CC=CC(=O)OCC(C)C	–	inconclusive: 50 µM
CCCCCCC(C)O (stereo not drawn)	–	inconclusive: 0.00435 µM
S=c1[nH][nH]c(=S)s1	–	inconclusive: 3.38 µM
O=c1c(O)c(-c2ccc(O)c(O)c2)oc2cc(O)cc(O)c12	–	inconclusive: 20.2 µM
COc1ccc2[nH]cc(CCNC(C)=O)c2c1	inactive	–
C1CNCCN1	–	inconclusive: 83.4 µM
